Measurements from PMC6814788.
No constants are given. Whether binding was seen depends on the method and setting. In cells and extracts the contact can be indirect. Binding can be weak; no strength is given.

Sequences of proteins named here, by UniProt entry; tags and fusion partners are left off.
UniProt O14980: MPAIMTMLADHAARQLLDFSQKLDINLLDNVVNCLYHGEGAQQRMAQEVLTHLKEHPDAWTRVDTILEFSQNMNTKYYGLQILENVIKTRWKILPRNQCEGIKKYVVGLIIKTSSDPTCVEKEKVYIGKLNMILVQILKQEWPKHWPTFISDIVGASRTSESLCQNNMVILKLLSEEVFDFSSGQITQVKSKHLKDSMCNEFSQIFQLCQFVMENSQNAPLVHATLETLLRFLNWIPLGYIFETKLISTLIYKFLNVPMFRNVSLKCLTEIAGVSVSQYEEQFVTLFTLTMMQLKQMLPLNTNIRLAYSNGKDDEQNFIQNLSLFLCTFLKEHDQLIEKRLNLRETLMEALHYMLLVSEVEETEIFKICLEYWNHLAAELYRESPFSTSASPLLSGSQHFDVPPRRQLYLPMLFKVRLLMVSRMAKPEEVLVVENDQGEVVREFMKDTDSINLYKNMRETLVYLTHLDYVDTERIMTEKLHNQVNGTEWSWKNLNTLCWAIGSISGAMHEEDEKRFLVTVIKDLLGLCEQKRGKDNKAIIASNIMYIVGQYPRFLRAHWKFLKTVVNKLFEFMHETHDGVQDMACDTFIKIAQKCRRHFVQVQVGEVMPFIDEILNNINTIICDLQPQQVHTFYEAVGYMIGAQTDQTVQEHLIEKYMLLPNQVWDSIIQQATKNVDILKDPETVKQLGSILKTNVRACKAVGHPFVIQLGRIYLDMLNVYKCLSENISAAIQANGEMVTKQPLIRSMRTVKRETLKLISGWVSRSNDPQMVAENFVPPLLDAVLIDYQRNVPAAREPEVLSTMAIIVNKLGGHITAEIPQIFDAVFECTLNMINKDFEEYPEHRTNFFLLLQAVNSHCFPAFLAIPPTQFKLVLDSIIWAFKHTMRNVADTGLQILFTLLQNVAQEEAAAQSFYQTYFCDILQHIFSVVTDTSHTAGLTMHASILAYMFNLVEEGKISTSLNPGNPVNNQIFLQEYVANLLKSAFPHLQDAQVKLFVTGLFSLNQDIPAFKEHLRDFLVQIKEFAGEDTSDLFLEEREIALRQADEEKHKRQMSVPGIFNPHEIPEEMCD

Target: Thioredoxin-related transmembrane protein 2 (TMX2), endogenous (human (endogenous in HEK293)) (UniProt Q9Y320)
Experiment: co-IP; HEK293 lysates (50 mM Tris-HCl pH 7.5, 150 mM NaCl, 0.25% NP40) immunoprecipitated with anti-TMX2 antibody (endogenous TMX2), protein A-Sepharose, 4 °C; blots with anti-importin-β or anti-Flag antibody; cells untransfected or expressing Flag-Ran WT, Flag-Ran Q69L, Flag-importin-α, Flag-importin-β or Flag-CRM1

binding: binds weakly
Substance: Flag-CRM1 (from UniProt O14980 1-1071)
